Our source for the isolated mass and isolated yield values is patent US20220242905A1 (UNIVERSITE DE MONTPELLIER, priority 2018, published 2022).

Some peptides are written in HELM: one residue between dots, names in brackets for other building blocks, links after the first $.

The nature of data set [1]: general procedure: Fmoc solid-phase peptide synthesis; ChemMatrix Rink Amide resin loaded at 0.49 mmol/g; DIC/Oxyma Pure. As to conditions: whole synthesis, scale 0.7 mmol.
The nature of data set [2]: general procedure: Fmoc solid-phase peptide synthesis; ChemMatrix Rink Amide resin; DIC/Oxyma Pure. Conditions: whole synthesis, scale 0.15 mmol.

In data set [1], “PEPTIDE1{[ac].[ATC-Lys-Me].[ATC-Ala-C4N].[ATC-Ala-Me].[ATC-Lys-Me].[ATC-Ala-C4N].[ATC-Ala-Me].[am]}$$$$V2.0” displayed an isolated mass of 45 mg and an isolated yield of 12%.
As for “PEPTIDE1{[ac].[ATC-Lys-Me].[ATC-Ala-Me].[ATC-Ala-C4N].[ATC-Ala-Me].[ATC-Ala-C4N].[ATC-Lys-Me].[ATC-Ala-C4N].[ATC-Lys-Me].[ATC-Ala-Me].[ATC-Ala-Me].[ATC-Ala-C4N].[ATC-Lys-Me].[am]}$$$$V2.0”, in data set [2], the isolated mass came to 92 mg and the isolated yield was 18%.
